# The campaign covered roughly 300,000 compounds. About 5,400 (1.8%) were called active. This list was built around the results that the source calls inconclusive (neither active nor inactive); the mix of calls is not that of the screen. Calls follow the shape of the full dose curve; tested in HEK293 cells. Where the call is inconclusive, the potency comes from a doubtful curve fit.
# Test: qHTS for inhibitors of binding or entry into cells for Marburg Virus
# Settings: Marburg virus pseudotyped entry inhibition, cell reporter; series mostly up to 37.8 µM
# Potency is read from the fitted curve at half-maximal effect.
row,Structure (SMILES),Potency
1,CCOC(=O)c1c(C)n(Cc2ccco2)c2ccc(OC)cc12,inactive
2,CC(C)Nc1nc(-c2ccccn2)nc(-c2ccccc2)c1C#N,inactive
3,CN(CC1CCCO1)S(=O)(=O)c1ccc(C(=O)Nc2ccc([N+](=O)[O-])cc2)cc1 (configuration not stated),"inconclusive: 35.5 µM [inhibitor, single point]"
4,CC1=C(C(=O)Nc2cccc(C)n2)C(c2ccc3c(c2)OCO3)C2=C(CC(c3ccco3)CC2=O)N1 (configuration not stated),"inconclusive: 35.5 µM [inhibitor, partial curve, poor fit]"
5,CC(C)C[C@H]1COc2cc(Br)ccc2S(=O)(=O)N1Cc1ccc(Cl)cc1,"inconclusive: 25 µM [inhibitor, single point]"
6,COC(=O)c1c(NC(=O)c2ccc(C)o2)sc2c1CCCCC2,inactive
7,O=C(NCC(c1cccs1)N1CCOCC1)c1ccccc1NS(=O)(=O)c1ccc(Cl)cc1 (configuration not stated),"inconclusive: 22.4 µM [inhibitor, partial curve, poor fit]"
8,COC(=O)c1ccc(Cn2cnc3c(sc4nc(N5CCOCC5)c5c(c43)CCCC5)c2=O)o1,"inconclusive: 35.5 µM [inhibitor, single point]"
9,CCc1c(C(=O)NNC(=S)NCc2ccccc2)csc1C,"inconclusive: 23.1 µM [activator, single point]"
10,CN(C(=O)CSc1nc2cc([N+](=O)[O-])ccc2n1-c1ccc(F)cc1)C1CCS(=O)(=O)C1 (configuration not stated),inactive
11,CC(C)(C)c1ccc(OCc2nc(-c3ccccn3)no2)c(Br)c1,"inconclusive: 29.1 µM [inhibitor, single point]"
12,CCCCOC(=O)Cn1cnc2ccc(Br)cc2c1=O,inactive
13,CC(C)(C)OC(=O)N/N=C/c1cn(-c2ccccc2)nc1-c1cccnc1,"inconclusive: 20 µM [inhibitor, partial curve, poor fit]"
14,O=C(Nn1cnc2ccccc2c1=O)c1ccc([N+](=O)[O-])cc1,"inconclusive: 35.5 µM [activator, partial curve, poor fit]"
15,Cc1cc(C)c(C)c(S(=O)(=O)NCc2ccc(C(=O)N3CCCCC3)cc2)c1C,inactive
16,COc1cccc(NC(=O)CN2C(=O)NC(Cc3c[nH]c4ccccc34)C2=O)c1 (configuration not stated),inactive
17,Nc1nc2ccc(C(=O)Nc3ccc(N4CCOCC4)cc3)cc2s1,"inconclusive: 35.5 µM [inhibitor, single point]"
18,O=C(NNC(=S)Nc1ccccc1)c1cccc(S(=O)(=O)N2CCOCC2)c1,inactive
19,COc1ccc(S(=O)(=O)N2CCC(C(=O)Nc3ccc(S(=O)(=O)N4CCCC4)cc3)CC2)cc1OC,"inconclusive: 35.5 µM [inhibitor, single point]"
20,Nc1cccc(-c2cn3cccnc3n2)c1,inactive
21,Cc1ccc(NC(=O)CCn2cc(C(F)(F)F)ccc2=O)cc1,"inconclusive: 12.6 µM [activator, partial curve, poor fit]"

row,Structure (SMILES),Potency
1,COc1cc(OC)cc(C(=O)N2CCN(C3CCN(Cc4ccccc4)CC3)CC2)c1,"inconclusive: 2.06 µM [activator, partial curve, poor fit]"
2,O=C(O)CNC(=O)c1ccc2c(c1)OCCO2,inactive
3,O=C(Nc1ccccn1)c1ccc(S(=O)(=O)N2CCCCCC2)cc1,"inconclusive: 35.5 µM [inhibitor, single point]"
4,CC1CCN(Cc2c(O)ccc3c(=O)c(-c4cccc(Cl)c4)c(C(F)(F)F)oc23)CC1,"inconclusive: 3.16 µM [activator, partial curve, poor fit]"
5,CCCCOc1ccc(C(=O)N2CCN(CCc3ccccn3)CC2)cc1,inactive
6,Cc1cccc(NC(=S)Nc2ccc(Cl)c(Cl)c2)c1,"inconclusive: 3.16 µM [inhibitor, single point]"
7,Cc1cc(C)c(S(=O)(=O)N2CCC(C(=O)NCc3ccc(Cl)cc3Cl)CC2)c(C)c1,"inconclusive: 9.2 µM [inhibitor, partial curve, poor fit]"
8,COc1ccc(/C=C/C(=O)c2cc(F)ccc2OC(=O)c2ccccc2OC)cc1OC,"inconclusive: 1.58 µM [inhibitor, full curve, poor fit]"
9,COC(=O)C1=C(C(=O)OC)C2OC1c1cc3ccccc3cc12,"inconclusive: 11.2 µM [inhibitor, partial curve, poor fit]"
10,CS(=O)(=O)N(CC(=O)N1CCN(Cc2ccc3c(c2)OCO3)CC1)Cc1ccc(Cl)cc1,inactive
11,Cc1[nH]c(C)c(S(=O)(=O)N2CCN(c3ccccc3F)CC2)c1C(=O)N1CCCCC1,"inconclusive: 35.5 µM [inhibitor, single point]"
12,COc1cccc2sc(N(CCN(C)C)C(=O)c3ccc4c(c3)CCCC4)nc12,"inconclusive: 35.5 µM [inhibitor, single point]"
13,CCCCc1cc(=O)oc2cc(C)c(CN3CCCC3)c(O)c12,inactive
14,O=C(Nc1ccc(S(=O)(=O)N2CCCCC2)cc1)C1CC(=O)N(c2ccc(F)cc2)C1 (configuration not stated),"inconclusive: 35.5 µM [inhibitor, single point]"
15,CC1CCCN(c2ccc(F)cc2N)C1 (configuration not stated),"inconclusive: 35.5 µM [inhibitor, single point]"
16,Cc1ccc(S(=O)(=O)N2CCCCC2)cc1NC(=O)c1cc(F)c(F)c(F)c1F,"inconclusive: 39.8 µM [inhibitor, partial curve, poor fit]"
17,O=C(Nc1nc2ccc(F)cc2s1)C1=COCCO1,"inconclusive: 4.47 µM [inhibitor, full curve, poor fit]"
18,O=C(C1CCN(S(=O)(=O)c2cnc[nH]2)CC1)N1CCn2c1nc1ccccc12,"inconclusive: 4.11 µM [activator, full curve]"
19,O=C(O)c1ccc(C2NCC(c3ccccc3Cl)c3c2[nH]c2ccccc32)cc1 (configuration not stated),"inconclusive: 31.6 µM [activator, single point]"
20,Cc1nc2ccc([N+](=O)[O-])cc2c(=O)n1Cc1cccc(Br)c1,"inconclusive: 0.708 µM [inhibitor, full curve, poor fit]"
21,Cc1ccc(N(CC(=O)NC2CC3CCC2C3)S(C)(=O)=O)cc1C (configuration not stated),inactive

# Of the compounds above, these contain a tert-butyl group.
row,Structure (SMILES),Potency
11,CC(C)(C)c1ccc(OCc2nc(-c3ccccn3)no2)c(Br)c1,"inconclusive: 29.1 µM [inhibitor, single point]"
13,CC(C)(C)OC(=O)N/N=C/c1cn(-c2ccccc2)nc1-c1cccnc1,"inconclusive: 20 µM [inhibitor, partial curve, poor fit]"
